System: MYO-29 cell line
Test: Dish scale carnosine experiments (dish cultures taken from bioreactor)
Assay type: cell-based
Conditions: 10 mM carnosine added on day 4, 7 or 10; dishes at 31° C., harvested day 12

SMILES: NCCC(=O)N[C@@H](Cc1cnc[nH]1)C(=O)O [carnosine]
- acidic peaks: decreasing
- high molecular weight aggregates: decreasing

Reference: US20070110743A1, “Methods of protein production using anti-senescence compounds” (Wyeth, priority 2005, published 2007)
